Structures can show the parent of a compound that is named as a salt. This is one part of the list. Repeats in this data set agree poorly, so a single value says little.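 The human kidney-derived cells carry a stably integrated construct of eight TEAD-binding elements driving luciferase, read by luminescence in a drug-repurposing library screen. A compound counts as a hit when its signal is more than five robust Z scores above the plate mean.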
System: HEK293A TEAD-LUC reporter
Experiment: TEAD-luciferase reporter activity (YAP activation), robust Z score vs plate; higher = stronger YAP/TEAD activation
Details: 24 h

SMILES | TEAD-luciferase reporter activity (compound concentration: 200 nM) | TEAD-luciferase reporter activity (compound concentration: 10 uM) | TEAD-luciferase reporter activity (compound concentration: 2 uM)
COc1ccc(C(=O)N2Cc3ccccc3CC23CCCN(C(=O)CCCN)C3)cc1 (configuration not stated) | inactive: 2.65 | inactive: 0.315 | 
O=[N+]([O-])c1nccn1COC(CO)CO | inactive: -0.527 | active: 11.3 | inactive: 0.145
CCCCCCCCCC1(C)OCC(COC(N)=O)O1 (configuration not stated) | inactive: 2.02 | inactive: 0.199 | inactive: 0.136
CC(=N)NCCS(=O)(=O)C[C@H](N)C(=O)O | inactive: 1.85 | inactive: 3.35 | inactive: -1.61
CCC(CC)Nc1cc(C)nc(Oc2c(C)cc(C)cc2C)c1C | inactive: -0.262 | inactive: 0.036 | inactive: 0.769
OC[C@H]1O[C@@H](n2cnc3c(O)ncnc32)[C@@H](O)[C@@H]1O | inactive: 0.0495 | inactive: -0.341 | inactive: -1.57
[OH][Ca][OH] | inactive: -0.251 | inactive: -0.438 | inactive: -1.04
CN1C[C@@H]2C[C@H]1CN2c1cc2c(cc1F)c(=O)c(C(=O)O)cn2C1CC1 [Danofloxacin mesylate] |  |  | inactive: 1.02
CN1C[C@@H]2C[C@H]1CN2c1cc2c(cc1F)c(=O)c(C(=O)O)cn2C1CC1 | inactive: -1.37 | inactive: 1.52 | 
CCCCCCOC(=O)/N=C(/N)c1ccc(NCc2nc3cc(C(=O)N(CCC(=O)OCC)c4ccccn4)ccc3n2C)cc1 [prodrug Dabigatran etexilate mesilate] | inactive: -0.913 | inactive: 4.52 | 
CCCCCCOC(=O)/N=C(/N)c1ccc(NCc2nc3cc(C(=O)N(CCC(=O)OCC)c4ccccn4)ccc3n2C)cc1 [Dabigatran etexilate mesilate] |  |  | inactive: -1.17
O=C(O)c1ccc2c(C3CCCCC3)c3n(c2c1)CCOc1cc(OCc2ccccc2)ccc1-3 | inactive: -0.0137 | active: 5.85 | inactive: -1.28
CNc1ccc(N2CCN(C(=O)[C@]3(C)CCc4c(C)c(O)c(C)c(C)c4O3)CC2)cc1 | inactive: -1.31 | inactive: -0.647 | inactive: 1.6
C#Cc1cccc(Nc2ncnc3cc4c(cc23)OCCOCCOCCO4)c1 [Icotinib hydrochloride] |  |  | inactive: 0.269
C#Cc1cccc(Nc2ncnc3cc4c(cc23)OCCOCCOCCO4)c1 [Icotinib] | inactive: 0.598 | inactive: -0.725 | 
O=C(O)CCC(=O)N1Cc2ccccc2CC2(CCCN2CC2CCCCC2)C1 (configuration not stated) | active: 7.96 | inactive: -0.386 | 
Cc1ccc2c(Br)cc(Br)c(OC(=O)c3ccco3)c2n1 | inactive: 3.56 | inactive: 2.38 | inactive: 0.887
[NH-]c1c[n+](N2CCOCC2)no1 | inactive: 2.7 | inactive: 2.19 | inactive: 1.33
[NH-]c1c[n+](N2CCOCC2)no1 [Linsidomine] |  |  | inactive: 1.18
NC(N)=NCCC[C@H](NC(=O)[C@H](CCCN=C(N)N)NC(=O)[C@H](CCCN=C(N)N)NC(=O)[C@H](CCCN=C(N)N)NC(=O)[C@H](CCCN=C(N)N)NC(=O)[C@H](CCCN=C(N)N)NC(=O)[C@H](CCCN=C(N)N)NC(=O)[C@H](CCCN=C(N)N)NC(=O)[C@@H](N)CCCN=C(N)N)C(=O)O | inactive: -1.08 | inactive: 0.351 | inactive: -0.609

Copied from above (two entries):
SMILES | TEAD-luciferase reporter activity (compound concentration: 200 nM) | TEAD-luciferase reporter activity (compound concentration: 10 uM) | TEAD-luciferase reporter activity (compound concentration: 2 uM)
O=[N+]([O-])c1nccn1COC(CO)CO | inactive: -0.527 | active: 11.3 | inactive: 0.145
CCCCCCCCCC1(C)OCC(COC(N)=O)O1 (configuration not stated) | inactive: 2.02 | inactive: 0.199 | inactive: 0.136
